No constants are given. Whether binding was seen depends on the method and setting. In cells and extracts the contact can be indirect. Here binding means that the protein was enriched with, or labelled near, the bait; the list need not be complete. Each block holds one molecule with its values, some of them ahead of it.
Experiments:
GFP-PARP1 = GFP-PARP1 (UniProt P09874); experiment: affinity purification with mass spectrometry; SILAC-labelled U2OS cells transiently expressing GFP-ZBTB24 or GFP-PARP1 (heavy) or empty vector (light); lysis in EBC-150, sonication, Benzonase, NaCl raised to 300 mM; GFP Trap beads, washes with EBC-300; on-bead trypsin digestion, LC-MS/MS
GFP-ZBTB24 (human) = GFP-ZBTB24 (human) (UniProt O43167); experiment: as above

Sequences of proteins named here, by UniProt entry; tags and fusion partners are left off.
UniProt P09874: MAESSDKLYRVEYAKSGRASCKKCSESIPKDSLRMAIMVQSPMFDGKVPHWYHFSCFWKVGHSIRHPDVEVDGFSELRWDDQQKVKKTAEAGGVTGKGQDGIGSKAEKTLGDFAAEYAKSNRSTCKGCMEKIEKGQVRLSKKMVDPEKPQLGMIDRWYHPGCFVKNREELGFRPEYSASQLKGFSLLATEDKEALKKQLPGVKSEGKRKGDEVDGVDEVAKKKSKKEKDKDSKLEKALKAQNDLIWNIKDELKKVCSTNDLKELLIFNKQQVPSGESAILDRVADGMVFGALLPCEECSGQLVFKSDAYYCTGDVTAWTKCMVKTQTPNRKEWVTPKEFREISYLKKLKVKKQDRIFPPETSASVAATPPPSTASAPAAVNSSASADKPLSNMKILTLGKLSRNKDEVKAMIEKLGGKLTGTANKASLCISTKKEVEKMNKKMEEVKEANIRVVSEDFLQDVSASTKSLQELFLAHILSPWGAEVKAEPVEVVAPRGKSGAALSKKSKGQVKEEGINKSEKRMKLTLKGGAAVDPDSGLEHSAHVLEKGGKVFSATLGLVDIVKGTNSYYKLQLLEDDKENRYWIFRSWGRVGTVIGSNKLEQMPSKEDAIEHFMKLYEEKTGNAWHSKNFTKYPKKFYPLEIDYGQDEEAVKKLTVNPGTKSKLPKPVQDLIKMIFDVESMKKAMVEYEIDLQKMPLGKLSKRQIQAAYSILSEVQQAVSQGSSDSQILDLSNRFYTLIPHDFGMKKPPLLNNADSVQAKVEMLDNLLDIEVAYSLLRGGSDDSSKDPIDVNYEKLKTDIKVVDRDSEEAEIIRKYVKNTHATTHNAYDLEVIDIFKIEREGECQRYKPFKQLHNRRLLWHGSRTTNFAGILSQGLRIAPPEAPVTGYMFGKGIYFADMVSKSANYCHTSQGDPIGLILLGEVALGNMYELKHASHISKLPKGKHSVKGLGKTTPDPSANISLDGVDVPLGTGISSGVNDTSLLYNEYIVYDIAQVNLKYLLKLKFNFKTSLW
UniProt O43167: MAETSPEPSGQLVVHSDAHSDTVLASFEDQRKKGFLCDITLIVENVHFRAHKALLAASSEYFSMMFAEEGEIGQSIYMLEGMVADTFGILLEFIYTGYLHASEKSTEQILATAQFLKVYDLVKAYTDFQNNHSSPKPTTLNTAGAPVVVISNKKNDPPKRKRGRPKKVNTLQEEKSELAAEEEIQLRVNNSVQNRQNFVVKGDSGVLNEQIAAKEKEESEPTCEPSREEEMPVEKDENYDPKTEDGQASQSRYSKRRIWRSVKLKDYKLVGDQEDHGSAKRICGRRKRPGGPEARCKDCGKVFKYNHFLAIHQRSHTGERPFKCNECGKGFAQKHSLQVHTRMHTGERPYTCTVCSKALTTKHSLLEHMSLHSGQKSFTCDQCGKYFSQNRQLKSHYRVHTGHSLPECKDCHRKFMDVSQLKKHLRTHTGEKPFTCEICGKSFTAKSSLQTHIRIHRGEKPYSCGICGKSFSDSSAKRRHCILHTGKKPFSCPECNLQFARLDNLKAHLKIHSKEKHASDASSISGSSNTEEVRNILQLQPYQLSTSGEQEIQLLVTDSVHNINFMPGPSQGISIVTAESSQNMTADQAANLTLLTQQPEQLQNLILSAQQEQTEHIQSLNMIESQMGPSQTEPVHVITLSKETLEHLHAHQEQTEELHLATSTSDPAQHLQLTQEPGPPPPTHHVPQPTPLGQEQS
UniProt P18887: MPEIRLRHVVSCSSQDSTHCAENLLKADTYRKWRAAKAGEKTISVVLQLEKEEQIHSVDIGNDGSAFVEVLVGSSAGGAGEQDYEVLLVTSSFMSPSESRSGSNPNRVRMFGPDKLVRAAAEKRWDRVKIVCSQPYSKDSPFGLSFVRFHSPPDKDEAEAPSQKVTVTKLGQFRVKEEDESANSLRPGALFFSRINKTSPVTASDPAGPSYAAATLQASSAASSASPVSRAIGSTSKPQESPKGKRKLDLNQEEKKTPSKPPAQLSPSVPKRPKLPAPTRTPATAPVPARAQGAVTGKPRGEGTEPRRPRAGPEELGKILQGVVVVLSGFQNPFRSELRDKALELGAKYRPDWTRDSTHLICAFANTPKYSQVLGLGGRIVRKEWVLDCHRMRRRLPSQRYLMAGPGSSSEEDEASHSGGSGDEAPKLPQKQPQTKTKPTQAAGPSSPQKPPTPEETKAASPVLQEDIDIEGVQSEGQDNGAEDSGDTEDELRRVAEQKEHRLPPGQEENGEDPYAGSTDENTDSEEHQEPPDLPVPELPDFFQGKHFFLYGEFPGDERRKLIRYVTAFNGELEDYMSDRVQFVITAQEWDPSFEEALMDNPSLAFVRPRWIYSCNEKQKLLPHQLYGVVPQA

Molecule: ZBTB24, endogenous (from UniProt O43167 1-697)
binding (GFP-PARP1): binds

B1: DNA ligase 3 (LIG3), endogenous (enzyme, UniProt P49916 43-1009)
chain: LLHGHPLFLRRKPVLSFQGSHLRSRATYLVFLPGLHVGLCSGPCEMAEQRFCVDYAKRGTAGCKKCKEKIVKGVCRIGKVVPNPFSESGGDMKEWYHIKCMFEKLERARATTKKIEDLTELEGWEELEDNEKEQITQHIADLSSKAAGTPKKKAVVQAKLTTTGQVTSPVKGASFVTSTNPRKFSGFSAKPNNSGEAPSSPTPKRSLSSSKCDPRHKDCLLREFRKLCAMVADNPSYNTKTQIIQDFLRKGSAGDGFHGDVYLTVKLLLPGVIKTVYNLNDKQIVKLFSRIFNCNPDDMARDLEQGDVSETIRVFFEQSKSFPPAAKSLLTIQEVDEFLLRLSKLTKEDEQQQALQDIASRCTANDLKCIIRLIKHDLKMNSGAKHVLDALDPNAYEAFKASRNLQDVVERVLHNAQEVEKEPGQRRALSVQASLMTPVQPMLAEACKSVEYAMKKCPNGMFSEIKYDGERVQVHKNGDHFSYFSRSLKPVLPHKVAHFKDYIPQAFPGGHSMILDSEVLLIDNKTGKPLPFGTLGVHKKAAFQDANVCLFVFDCIYFNDVSLMDRPLCERRKFLHDNMVEIPNRIMFSEMKRVTKALDLADMITRVIQEGLEGLVLKDVKGTYEPGKRHWLKVKKDYLNEGAMADTADLVVLGAFYGQGSKGGMMSIFLMGCYDPGSQKWCTVTKCAGGHDDATLARLQNELDMVKISKDPSKIPSWLKVNKIYYPDFIVPDPKKAAVWEITGAEFSKSEAHTADGISIRFPRCTRIRDDKDWKSATNLPQLKELYQLSKEKADFTVVAGDEGSSTTGGSSEENKGPSGSAVSRKAPSKPSASTKKAEGKLSNSNSKDGNMQTAKPSAMKVGEKLATKSSPVKVGEKRKAADETLCQTKVLLDIFTGVRLYLPPSTPDFSRLRRYFVAFDGDLVQEFDMTSATHVLGSRDKNPAAQQVSPEWIWACIRKRRLVAPC
binding (GFP-PARP1): binds

Continued, values first:

binding (GFP-PARP1): binds
Molecule: XRCC1, endogenous (from UniProt P18887 1-633)

binding (GFP-ZBTB24 (human)): binds
Molecule: poly(ADP-ribose) polymerase 1 (PARP1), endogenous (from UniProt P09874 1-1014) (enzyme)

Source: PMC7526497
